Values from PubChem BioAssay AID1259424 (University of Nebraska Medical Center, 2018).

Test: 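Find knockdowns that reproduce the expression shifts seen after KSR1 loss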 (primary screen)
System: human HCT116 colon cancer cells
Reagent: siRNA pool against human genes, 50 nM
Measurement: 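Six signature mRNAs by branched-DNA multiplex assay, scaled to two housekeeping genes and non-targeting median, log2; matched to mean KSR1 knockdown profile by Pearson correlation and euclidean distance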
Scale: mean correlation with KSR1 profile and KSR1 correlation: higher = expression change more like KSR1 knockdown; mean distance from KSR1 profile: higher = expression change less like KSR1 knockdown
This is one part, drawn at random, of about 14,000 reagents. 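Higher correlation or smaller distance means closer resemblance to KSR1 loss; control wells, including KSR1 knockdowns, recur on many plates.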 Not given: the time to read-out.

gene | mean correlation with KSR1 profile | mean distance from KSR1 profile | KSR1 correlation, replicate 1 | KSR1 correlation, replicate 2 | KSR1 correlation, replicate 3
SRPRB | 0.205 | 1.91 | -0.0209 | 0.198 | 0.383
RELN | 0.196 | 1.76 | 0.00105 | 0.249 | 0.213
ARX | 0.567 | 1.63 | 0.82 | 0.652 | 0.42
HRK | 0.486 | 1.88 | 0.57 | 0.219 | 0.582
APOL1 | -0.231 | 2.7 | -0.199 | -0.222 | -0.196
P4HA2 | -0.176 | 1.73 | -0.0481 | -0.381 | 0.092
SLC4A2 | 0.12 | 1.64 | 0.0766 | 0.144 | 0.401
COA1 | 0.285 | 1.45 | 0.464 | 0.00433 | 0.131
MYO10 | 0.128 | 1.92 | 0.131 | -0.181 | -0.0898
DMTN | 0.23 | 1.77 | 0.237 | 0.0636 | 0.0377
POLE2 | 0.644 | 2.15 | 0.653 | 0.721 | 0.581
BCL2L10 | 0.0125 | 1.39 | -0.126 | -0.26 | 0.283
PALB2 | 0.532 | 2.48 | 0.5 | 0.635 | 0.31
NR4A3 | 0.288 | 2.74 | 0.406 | 0.245 | 0.18
GPR21 | -0.849 | 4.26 | -0.916 | -0.626 | -0.443
PAX8 | -0.191 | 4 | -0.0454 | -0.156 | -0.386
MTHFS | -0.408 | 2.69 | -0.369 | -0.364 | -0.4
PNLIP | -0.412 | 2.12 | -0.446 | -0.447 | -0.438
KLHL2 | -0.582 | 2.08 | -0.279 | -0.702 | -0.616
MAB21L2 | -0.357 | 1.36 | -0.48 | -0.0998 | -0.224
DAP | -0.53 | 2.03 | -0.569 | -0.577 | -0.631
DDX54 | 0.102 | 1.76 | -0.00429 | 0.0176 | 0.00434
MRTFA | 0.659 | 1.05 | 0.756 | 0.34 | 0.38
APBA2 | -0.0817 | 1.74 | 0.0724 | -0.248 | -0.226
ZNF205 | -0.206 | 2.02 | -0.376 | 0.0817 | -0.587
GRIK2 | -0.37 | 1.93 | -0.207 | -0.298 | -0.806
EMSY | -0.644 | 2.72 | -0.733 | -0.441 | -0.263
DYNC2H1 | 0.648 | 1.39 | 0.515 | 0.764 | 0.581
MORC3 | -0.484 | 2.96 | -0.369 | -0.555 | -0.405
FBXO42 | -0.011 | 1.51 | -0.0605 | 0.133 | 0.113
PEX13 | -0.488 | 1.45 | -0.314 | -0.635 | -0.386
RAB17 | -0.509 | 2.69 | -0.519 | -0.678 | -0.527
DDX41 | -0.656 | 1.79 | -0.837 | -0.554 | -0.437

In a second layout: 4 of the entries above
APOL1 | mean correlation with KSR1 profile = -0.231; mean distance from KSR1 profile = 2.7; KSR1 correlation, replicate 1 = -0.199; KSR1 correlation, replicate 2 = -0.222; KSR1 correlation, replicate 3 = -0.196
P4HA2 | mean correlation with KSR1 profile = -0.176; mean distance from KSR1 profile = 1.73; KSR1 correlation, replicate 1 = -0.0481; KSR1 correlation, replicate 2 = -0.381; KSR1 correlation, replicate 3 = 0.092
SLC4A2 | mean correlation with KSR1 profile = 0.12; mean distance from KSR1 profile = 1.64; KSR1 correlation, replicate 1 = 0.0766; KSR1 correlation, replicate 2 = 0.144; KSR1 correlation, replicate 3 = 0.401
COA1 | mean correlation with KSR1 profile = 0.285; mean distance from KSR1 profile = 1.45; KSR1 correlation, replicate 1 = 0.464; KSR1 correlation, replicate 2 = 0.00433; KSR1 correlation, replicate 3 = 0.131

More results follow.
gene | mean correlation with KSR1 profile | mean distance from KSR1 profile | KSR1 correlation, replicate 1 | KSR1 correlation, replicate 2 | KSR1 correlation, replicate 3
ZBTB14 | 0.432 | 1.26 | 0.661 | 0.789 | -0.0658
LMNB2 | -0.167 | 1.18 | 0.303 | -0.269 | -0.268
RRBP1 | 0.0324 | 1.77 | 0.0092 | -0.128 | 0.372
ADAM15 | -0.0554 | 2.91 | 0.12 | -0.105 | -0.276
MFAP3 | 0.277 | 1.5 | 0.0515 | 0.279 | 0.462
EPHX4 | -0.104 | 1.42 | 0.222 | 0.442 | -0.368
RGL2 | -0.361 | 2.26 | -0.211 | -0.316 | -0.464
SEMA7A | 0.923 | 2.81 | 0.859 | 0.895 | 0.855
IDUA | 0.019 | 2.75 | 0.0828 | -0.119 | -0.0169
MCF2L | -0.683 | 2.73 | -0.456 | -0.702 | -0.66
MED14 | -0.374 | 3.03 | -0.243 | -0.359 | -0.54
GABRA5 | 0.203 | 2.27 | 0.304 | 0.0702 | 0.145
THAP10 | -0.0154 | 1.59 | -0.278 | -0.00126 | 0.265
DLC1 | 0.567 | 1.99 | 0.711 | 0.676 | 0.202
CD44 | -0.187 | 1.79 | 0.105 | -0.368 | -0.226
CFAP74 | 0.748 | 1.81 | 0.664 | 0.762 | 0.528
IFNW1 | -0.238 | 5.51 | -0.183 | -0.229 | -0.343
